Several values for one entry are separate records, joined by “and”; a condition that tells them apart may be missing. Identical values can stand only once.
Assay: In vitro test of NO uptake: manometer pressure and IR spectrum of freeze-dried product
Format: binding
Settings: freeze-dried reaction solution after the in vitro NO test
Method: The resulting solution was placed in a three-necked pear-shaped flask and stirred by a magnetic stirrer at constant speed of 1000 rpm, at a constant temperature in the range 20° C.-24° C. A manometer was attached to the flask, and purified, dried nitric oxide gas (known volume in the range 3-5cm^3) was introduced via a septum, using a gas syringe, at atmospheric pressure into the headspace above the reaction solution. The pressure within the flask was recorded periodically over a period of one hour.
A control experiment was carried out according to the above but without any complex present.
On completion of each in vitro test, the reaction solution was freeze-dried. An infrared spectrum of the freeze-dried product provided information on metal-NO bond formation.

Compound	IR peak indicating the presence of a Ru-NO bond
O.O.O=C([O-])CN(CCN(CC(=O)[O-])CC(=O)O)CC(=O)[O-].[Cl-].[K+].[Ru+3] [Example 1, K[Ru(hedta)Cl]2H2O]	1897 cm⁻¹
CC(=O)C=C(C)[O-].O=C([O-])CN(CCN(CC(=O)O)CC(=O)O)CC(=O)[O-].[Ru+3] [Example 2, [Ru(H2edta)(acac)]]	1896 cm⁻¹
O.O=C([O-])CN(CCO)CCN(CC(=O)[O-])CC(=O)[O-].[Cl-].[K+].[Ru+3] [Example 3, K[Ru(hedtra)Cl]H2O]	1889 cm⁻¹
O.O=C([O-])c1cccc(C(=O)[O-])n1.O=C([O-])c1cccc(C(=O)[O-])n1.[K+].[Ru+3] [Example 4, K[Ru(dipic)2]H2O]	1915 cm⁻¹
O.O=C([O-])CN(CCN(CC(=O)O)CC(=O)O)CC(=O)[O-].[Cl-].[Cl-].[K+].[Ru+3] [Example 6, K[Ru(H2edta)Cl2]H2O]	1896 cm⁻¹
CC(=O)[O-].CC(=O)[O-].CC(=O)[O-].CC(=O)[O-].O=[N+]([O-])[O-].[Ru+3].[Ru+3] [Example 11, [Ru2(OAc)4]NO3]	1891 cm⁻¹
CCC(=O)[O-].CCC(=O)[O-].CCC(=O)[O-].CCC(=O)[O-].O=[N+]([O-])[O-].[Ru+3].[Ru+3] [Example 12, [Ru2(OCOEt)4]NO3]	1891 cm⁻¹
O=C([O-])C(=O)[O-].O=C([O-])C(=O)[O-].O=C([O-])C(=O)[O-].[K+].[K+].[K+].[Ru+3] [Example 13, K3[Ru(ox)3]]	1889 cm⁻¹
CC(=O)[O-].CC(=O)[O-].CC(=O)[O-].CC(=O)[O-].[Cl-].[Ru+3].[Ru+3] [Example 14, [Ru2(OAc)4]Cl]	1895 cm⁻¹
NCCN.NCCN.NCCN.[I-].[I-].[I-].[Ru+3] [Example 16, [Ru(en)3]I3]	1906 cm⁻¹
O.[Cl-].[Cl-].[Cl-].[Cl-].[K+].[Ru+3].c1cnc2c(c1)ccc1cccnc12 [Example 17, K[RuCl4(phen)]H2O]	1904 cm⁻¹
CS(C)=O.CS(C)=O.N.[Cl-].[Cl-].[Cl-].[Ru+3] [Example 20, [RuCl3(dmso)2(NH3)]]	1889 cm⁻¹
N.N.N.N.N.N.[Cl-].[Cl-].[Cl-].[Ru+3] [Example 21, [Ru(NH3)6]Cl3]	1910 cm⁻¹
CS(C)=O.CS(C)=O.CS(C)=O.CS(C)=O.[Cl][Ru][Cl] [Example 22, Cis-[RuCl2(dmso)4]]	1881 cm⁻¹
CS(C)=O.CS(C)=O.CS(C)=O.N.[Cl-].[Cl-].[Ru+2] [Example 23, cis-[RuCl2(dmso)3(NH3)]]	1893 cm⁻¹
CS(C)=O.CS(C)=O.CS(C)=O.[Cl-].[Cl-].[Cl-].[Ru+3] [Example 24, [RuCl3(dmso)3]]	1880 cm⁻¹
Cc1occc(=O)c1[O][Ru]([O]c1c(C)occc1=O)[O]c1c(C)occc1=O [Example 26, [Ru(maltol)3]]	1866 cm⁻¹
CC#N.CC#N.CC(=O)C=C(C)[O-].CC(=O)C=C(C)[O-].O=S(=O)([O-])C(F)(F)F.[Ru+3] [Example 27, [Ru(acac)2(MeCN)2](CF3SO3)]	1899 cm⁻¹
O.[Cl-].[Cl-].[Cl][Ru]([Cl])[Cl].[K+].[K+] [Example 28, K2[RuCl5(H2O)]]	1903 cm⁻¹
O.O=C([O-])C(=O)[O-].[Os+2].c1ccc(-c2ccccn2)nc1.c1ccc(-c2ccccn2)nc1 [Example 29, [Os(ox)(bipy)2].H2O]	1894 cm⁻¹
(H2pic)[RuCl2(pic)2](Hpic)H2O [Example 5]	1888 cm⁻¹
K[Ru(H2dtpa)Cl]H2O [Example 8]	1905 cm⁻¹
K[Ru(hnta)2]½H2O [Example 7]	1889 cm⁻¹
K[RuCl4(bipy)] [Example 19]	1885 cm⁻¹
[Ru3O(OAc)6](OAc) [Example 10]	1877 cm⁻¹
[Ru3O(lac)6](lac) [Example 9]	1884 cm⁻¹
[Ru(NH3)5Cl]Cl2 [Example 15]	1909 cm⁻¹ and 1928 cm⁻¹
[Ru(mtc)3] [Example 25]	1862 cm⁻¹
